In PMC10908623, “X-ray structure and characterization of a probiotic Lactobacillus rhamnosus Probio-M9 L-rhamnose isomerase” (Applied Microbiology and Biotechnology, 2024):
Results are given in words; binding and its absence hold for the method and conditions named. Some results given as binding are weak or reduced against the parent protein; the word gives no strength.

Biological target: L-rhamnose isomerase from Lactobacillus rhamnosus Probio-M9 (Lactobacillus rhamnosus Probio-M9)
Test: crystal structure; sitting-drop vapor diffusion at 20 C, 0.1 M MES pH 6.5, 15% PEG550MME; LrL-RhI alone and crystals soaked in 30% (w/v) L-rhamnose, D-allulose or D-allose; space group P212121, four molecules in the asymmetric unit; both purified

binding: binds
B1: L-rhamnose isomerase from Lactobacillus rhamnosus Probio-M9 (enzyme, UniProt A0A171J5T1 1-426, looked up)
chain: MVKPEEVDKAYEVAKQRYAEIGVDTDAAMKELEKVPLSVHCWQGDDIHGFLFPNQELTGGIGVSGNYPGIARTPDELAGDMHEALSLIPGKHRVQLHAIYAVTDKKRDLDTLEPEDFDYWIDWAKQEGVGLDFNGTFFSHPMVKDNMTVSSPDPKVRDFWIRHGKISREISNYIGEKLGSQVVNNFWFPDGFKDNPIDKKTPRLRLLKALDEIIKDPLPEKNTIESFEGKLFGTGIESYTTGSHEFYQNYAISRNKLWTIDAGHFHPTEDVSDKFSAFFPFGKGLFMHVSRPVRWDSDHVVIMDDALIRITRSLVRDGYLDRTHIGLDFFDATINRVAAWVVGARATQKSLLQAMLAPIDQLKKDELNADFTTRLIETEELKSFPFGAVWDKFCQDHNTPVGFDWMNNIHQYEKDVQFKRDAKLVH
notes: L-rhamnose isomerase (putative LrL-RhI) of Lactobacillus rhamnosus Probio-M9, 426 amino acid residues, 48707 Da; also called LrL-RhI; L-RhI; not shown: His-tag, C-terminal, kept
